The supplement of paper PMC5355238
Counter-ions that a name gives are not always drawn. The list shows a part of the results. Most values lie at the level of the controls, where differences are scatter.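 Reh is a human leukemia cell line; the read-out is the median γH2AX antibody signal in S-phase cells by flow cytometry, with the score counting standard deviations from the median difference of each paired set of plates. Scores above 2.5 were called candidate hits, while scores below -2 mark compounds that lowered the MK1775-induced damage.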

What follows are compounds tested on Reh (assay: Z' of S-phase gammaH2AX difference (drug + MK1775 minus drug alone) (Z-score); higher = stronger synergistic S-phase DNA damage with MK1775). Conditions: MK1775 concentration 400 nM; first compound 10 µM; 4 h.

SMILES | Z' of S-phase gammaH2AX difference (Z-score)
CCn1ccnc1CC1COc2ccccc2O1 (stereo not drawn) [Imiloxan hydrochloride] + C=CCn1c(=O)c2cnc(Nc3ccc(N4CCN(C)CC4)cc3)nc2n1-c1cccc(C(C)(C)O)n1 [MK1775] | inactive: -1.61
O=C1CC2(CCCC2)CC(=O)N1CCCCN1CCN(c2ncccn2)CC1 [Buspirone hydrochloride] + C=CCn1c(=O)c2cnc(Nc3ccc(N4CCN(C)CC4)cc3)nc2n1-c1cccc(C(C)(C)O)n1 [MK1775] | inactive: 0.14
O=C(NOC[C@H](O)CO)c1ccc(F)c(F)c1Nc1ccc(I)cc1F + C=CCn1c(=O)c2cnc(Nc3ccc(N4CCN(C)CC4)cc3)nc2n1-c1cccc(C(C)(C)O)n1 [MK1775] | inactive: 0.154
Cc1cc(C)c(/C=C2\C(=O)Nc3ccccc32)[nH]1 + C=CCn1c(=O)c2cnc(Nc3ccc(N4CCN(C)CC4)cc3)nc2n1-c1cccc(C(C)(C)O)n1 [MK1775] | inactive: -0.0392
N[C@H](C(=O)O)c1cc(O)cc(O)c1 [(S)-3,5-Dihydroxyphenylglycine] + C=CCn1c(=O)c2cnc(Nc3ccc(N4CCN(C)CC4)cc3)nc2n1-c1cccc(C(C)(C)O)n1 [MK1775] | inactive: -0.425
Cc1cccc(C#Cc2ccccc2)n1 [6-Methyl-2-(phenylethynyl)pyridine hydrochloride] + C=CCn1c(=O)c2cnc(Nc3ccc(N4CCN(C)CC4)cc3)nc2n1-c1cccc(C(C)(C)O)n1 [MK1775] | inactive: 0.369
O=C(Nc1ncc([N+](=O)[O-])s1)c1ccc([N+](=O)[O-])c(Cl)c1 [NF??B Activation Inhibitor III] + C=CCn1c(=O)c2cnc(Nc3ccc(N4CCN(C)CC4)cc3)nc2n1-c1cccc(C(C)(C)O)n1 [MK1775] | inactive: 0.221
C=CCN1CCc2c(cc(O)c(O)c2Br)[C@@H](c2ccccc2)C1 [R(+)-6-Bromo-APB hydrobromide] + C=CCn1c(=O)c2cnc(Nc3ccc(N4CCN(C)CC4)cc3)nc2n1-c1cccc(C(C)(C)O)n1 [MK1775] | inactive: 0.0501
CN1CCN(CCOc2cc(OC3CCOCC3)c3c(Nc4c(Cl)ccc5c4OCO5)ncnc3c2)CC1 [Saracatinib (AZD0530)] + C=CCn1c(=O)c2cnc(Nc3ccc(N4CCN(C)CC4)cc3)nc2n1-c1cccc(C(C)(C)O)n1 [MK1775] | inactive: 0.509
Nc1ccc(S(=O)(=O)Nc2ccnn2-c2ccccc2)cc1 [Sulfaphenazole] + C=CCn1c(=O)c2cnc(Nc3ccc(N4CCN(C)CC4)cc3)nc2n1-c1cccc(C(C)(C)O)n1 [MK1775] | inactive: 0.0615
Nc1nc2[nH]c(=O)cnc2c(=O)[nH]1 [Isoxanthopterin] + C=CCn1c(=O)c2cnc(Nc3ccc(N4CCN(C)CC4)cc3)nc2n1-c1cccc(C(C)(C)O)n1 [MK1775] | inactive: -0.197
CC(C)(C)[C@]1(O)CCN2C[C@H]3c4ccccc4CCc4cccc(c43)[C@@H]2C1 [(+)-Butaclamol hydrochloride] + C=CCn1c(=O)c2cnc(Nc3ccc(N4CCN(C)CC4)cc3)nc2n1-c1cccc(C(C)(C)O)n1 [MK1775] | inactive: 0.611
Nc1ncnc2c1nc(Sc1ccc(Cl)cc1)n2C1OC2COP(=O)(O)O[C@@H]2[C@@H]1O (stereo partly drawn) [8-(4-Chlorophenylthio)-cAMP sodium] + C=CCn1c(=O)c2cnc(Nc3ccc(N4CCN(C)CC4)cc3)nc2n1-c1cccc(C(C)(C)O)n1 [MK1775] | inactive: 0.585
O=C(O)C1=CCCNC1 [Guvacine hydrochloride] + C=CCn1c(=O)c2cnc(Nc3ccc(N4CCN(C)CC4)cc3)nc2n1-c1cccc(C(C)(C)O)n1 [MK1775] | inactive: 1.66
NCCNC(=O)c1ncsc1-c1cccc(F)c1 [Ro 41-1049 hydrochloride] + C=CCn1c(=O)c2cnc(Nc3ccc(N4CCN(C)CC4)cc3)nc2n1-c1cccc(C(C)(C)O)n1 [MK1775] | inactive: -2.33
COc1ccccc1N1CCN(CCCCNS(=O)(=O)c2cccc3c(N(C)C)cccc23)CC1 [Cortexolone maleate] + C=CCn1c(=O)c2cnc(Nc3ccc(N4CCN(C)CC4)cc3)nc2n1-c1cccc(C(C)(C)O)n1 [MK1775] | inactive: 0.0317
C[C@@H]1C[C@H]2[C@@H]3CCC4=CC(=O)C=C[C@]4(C)[C@@]3(F)[C@@H](O)C[C@]2(C)[C@@]1(O)C(=O)CO [Dexamethasone] + C=CCn1c(=O)c2cnc(Nc3ccc(N4CCN(C)CC4)cc3)nc2n1-c1cccc(C(C)(C)O)n1 [MK1775] | inactive: 0.277
Cc1cnc(NC(=O)C2=C(O)c3ccccc3S(=O)(=O)N2C)s1 [Meloxicam sodium] + C=CCn1c(=O)c2cnc(Nc3ccc(N4CCN(C)CC4)cc3)nc2n1-c1cccc(C(C)(C)O)n1 [MK1775] | inactive: 0.354
O=C(O)CCCc1ccccc1 [4-Phenylbutyrate] + C=CCn1c(=O)c2cnc(Nc3ccc(N4CCN(C)CC4)cc3)nc2n1-c1cccc(C(C)(C)O)n1 [MK1775] | inactive: 0.492
N=C(N)SCCc1c[nH]cn1 [Imetit dihydrobromide] + C=CCn1c(=O)c2cnc(Nc3ccc(N4CCN(C)CC4)cc3)nc2n1-c1cccc(C(C)(C)O)n1 [MK1775] | inactive: 0.0364
CN(C)c1ccc(/C=C2/C(=O)Nc3ccccc32)cc1 + C=CCn1c(=O)c2cnc(Nc3ccc(N4CCN(C)CC4)cc3)nc2n1-c1cccc(C(C)(C)O)n1 [MK1775] | inactive: -0.319
COc1cc(NS(C)(=O)=O)ccc1Nc1c2ccccc2nc2ccccc12 [Amsacrine hydrochloride] + C=CCn1c(=O)c2cnc(Nc3ccc(N4CCN(C)CC4)cc3)nc2n1-c1cccc(C(C)(C)O)n1 [MK1775] | active: 3.16
FC(F)c1nc2ccccc2n1-c1nc(N2CCOCC2)nc(N2CCOCC2)n1 + C=CCn1c(=O)c2cnc(Nc3ccc(N4CCN(C)CC4)cc3)nc2n1-c1cccc(C(C)(C)O)n1 [MK1775] | inactive: -0.0495

Part of the list above, with each value named.
NCCNC(=O)c1ncsc1-c1cccc(F)c1 [Ro 41-1049 hydrochloride] + C=CCn1c(=O)c2cnc(Nc3ccc(N4CCN(C)CC4)cc3)nc2n1-c1cccc(C(C)(C)O)n1 [MK1775]
  Z' of S-phase gammaH2AX difference (Z-score): inactive: -2.33
COc1ccccc1N1CCN(CCCCNS(=O)(=O)c2cccc3c(N(C)C)cccc23)CC1 [Cortexolone maleate] + C=CCn1c(=O)c2cnc(Nc3ccc(N4CCN(C)CC4)cc3)nc2n1-c1cccc(C(C)(C)O)n1 [MK1775]
  Z' of S-phase gammaH2AX difference (Z-score): inactive: 0.0317
